Measurements reported in patent US6682545B1, “System and device for preventing restenosis in body vessels” (The Penn State Research Foundation, priority 1999, dated 2004).

Tested on: neointimal hyperplasia in rabbit carotid arteries
Assay: Restenosis after balloon angioplasty with ceramide-coated embolectomy catheter balloon
Assay type: in vivo, New Zealand white rabbits
Conditions: rabbit carotid artery

## CCCCCCCCCCCCC/C=C/[C@@H](O)[C@H](CO)NC(=O)CCCCC [C6-ceramide]
  cellular protein content vs sham control and vehicle control arteries: no significant differences
